Measured values: publication doi:10.1101/2021.02.19.431979
Positions count from the first letter of the chain named. Names may count otherwise. These are yes or no findings as the source states them, for the method shown. Binding seen in cells or lysates may run through a third protein. Some results given as binding are weak or reduced against the parent protein; the word gives no strength. For some assays here: Where a sequence is shown, tags or fusion partners need not be part of it.

How the values were obtained:
[1] = molecular target: T1, Snf7^D131C (S. cerevisiae) (UniProt P39929); test: cross-linking
T1 sequence: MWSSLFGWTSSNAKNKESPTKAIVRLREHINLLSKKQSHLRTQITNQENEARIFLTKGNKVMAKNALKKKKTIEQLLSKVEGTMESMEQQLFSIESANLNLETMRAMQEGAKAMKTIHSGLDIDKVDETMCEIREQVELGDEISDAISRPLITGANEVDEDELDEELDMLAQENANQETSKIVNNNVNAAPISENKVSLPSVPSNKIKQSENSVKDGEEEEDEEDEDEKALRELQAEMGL

[2] = molecular target: T2, Vps24-6xHis-TEV-FLAG (HTF) (S. cerevisiae), P36095; test: co-IP; details: remark: other sources report otherwise
T2 chain: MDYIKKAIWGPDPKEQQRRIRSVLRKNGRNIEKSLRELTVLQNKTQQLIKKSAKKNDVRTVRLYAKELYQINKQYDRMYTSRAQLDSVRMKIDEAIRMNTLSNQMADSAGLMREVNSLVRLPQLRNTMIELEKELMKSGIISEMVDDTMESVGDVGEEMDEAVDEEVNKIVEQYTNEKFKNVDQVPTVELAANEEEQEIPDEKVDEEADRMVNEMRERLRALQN

[3] = molecular target: T3, Vps2^L113C (S. cerevisiae) (UniProt P36108); test: cross-linking
T3 sequence: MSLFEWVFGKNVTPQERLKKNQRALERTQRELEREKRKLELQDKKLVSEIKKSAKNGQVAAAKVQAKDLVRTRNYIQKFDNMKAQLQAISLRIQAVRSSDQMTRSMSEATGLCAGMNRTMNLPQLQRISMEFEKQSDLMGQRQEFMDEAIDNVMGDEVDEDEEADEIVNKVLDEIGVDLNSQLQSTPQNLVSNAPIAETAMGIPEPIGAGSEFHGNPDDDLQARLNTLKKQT

[4] = molecular target: T4, Vps2^L91C (S. cerevisiae) (UniProt P36108); test: cross-linking
T4 sequence: T3 sequence with L91C, C113L

[5] = molecular target: T5, Vps24^M90E-HTF (S. cerevisiae) (UniProt P36095); test: co-IP
T5 sequence: T2 chain with M90E

[6] = molecular target: T6, Vps24-6xHis-TEV-FLAG (HTF) (S. cerevisiae) (UniProt P36095); test: co-IP
T6 sequence: T2 chain

B1: Vps2^K19C (protein, UniProt P36108 1-232)
chain: T3 sequence with K19C, C113L
[1]
  binding: binds

B2: Vps24^R19C (protein, UniProt P36095 1-224)
chain: T2 chain with R19C
[1]
  binding: binds

B3: Snf7, P39929 1-240 (protein)
chain: T1 sequence with C131D
[2]
  binding: binds

B4: Vps2, P36108 1-232 (protein)
chain: T3 sequence with C113L
[2]
  binding: binds

B5: Vps24^M90C (protein, UniProt P36095 1-224)
chain: T2 chain with M90C
[3]
  binding: binds

B6: Vps24^M112C (protein, UniProt P36095 1-224)
chain: T2 chain with M112C
[4]
  binding: binds

B7: Vps2 (protein, UniProt P36108 1-232)
chain: T3 sequence with C113L
[5]
  binding: no binding

B8: Vps2^L91E (protein, UniProt P36108 1-232)
chain: T3 sequence with L91E, C113L
[6]
  binding: no binding
